Protein sequences, listed by entry. Tags and fused reporters are not part of them.
UniProt P11798: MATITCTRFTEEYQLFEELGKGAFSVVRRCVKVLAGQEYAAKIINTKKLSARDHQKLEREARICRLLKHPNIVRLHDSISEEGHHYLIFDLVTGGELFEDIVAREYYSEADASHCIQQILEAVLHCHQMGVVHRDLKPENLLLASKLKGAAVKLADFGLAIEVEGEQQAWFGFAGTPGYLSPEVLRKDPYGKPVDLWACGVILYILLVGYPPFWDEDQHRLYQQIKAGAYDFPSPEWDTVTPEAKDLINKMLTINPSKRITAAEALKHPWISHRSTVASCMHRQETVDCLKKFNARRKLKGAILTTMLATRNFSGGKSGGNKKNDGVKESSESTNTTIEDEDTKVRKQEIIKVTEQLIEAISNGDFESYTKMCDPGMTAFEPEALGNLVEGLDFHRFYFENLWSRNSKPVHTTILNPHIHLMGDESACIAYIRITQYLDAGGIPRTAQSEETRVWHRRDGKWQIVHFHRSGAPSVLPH
UniProt Q9CXS4: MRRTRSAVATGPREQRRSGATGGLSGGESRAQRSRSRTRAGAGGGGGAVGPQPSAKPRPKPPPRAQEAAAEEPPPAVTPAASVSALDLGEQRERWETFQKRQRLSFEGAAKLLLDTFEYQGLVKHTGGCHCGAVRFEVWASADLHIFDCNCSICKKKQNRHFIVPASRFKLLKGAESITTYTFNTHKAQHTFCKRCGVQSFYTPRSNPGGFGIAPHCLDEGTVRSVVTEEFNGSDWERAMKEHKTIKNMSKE
UniProt Q80YA9: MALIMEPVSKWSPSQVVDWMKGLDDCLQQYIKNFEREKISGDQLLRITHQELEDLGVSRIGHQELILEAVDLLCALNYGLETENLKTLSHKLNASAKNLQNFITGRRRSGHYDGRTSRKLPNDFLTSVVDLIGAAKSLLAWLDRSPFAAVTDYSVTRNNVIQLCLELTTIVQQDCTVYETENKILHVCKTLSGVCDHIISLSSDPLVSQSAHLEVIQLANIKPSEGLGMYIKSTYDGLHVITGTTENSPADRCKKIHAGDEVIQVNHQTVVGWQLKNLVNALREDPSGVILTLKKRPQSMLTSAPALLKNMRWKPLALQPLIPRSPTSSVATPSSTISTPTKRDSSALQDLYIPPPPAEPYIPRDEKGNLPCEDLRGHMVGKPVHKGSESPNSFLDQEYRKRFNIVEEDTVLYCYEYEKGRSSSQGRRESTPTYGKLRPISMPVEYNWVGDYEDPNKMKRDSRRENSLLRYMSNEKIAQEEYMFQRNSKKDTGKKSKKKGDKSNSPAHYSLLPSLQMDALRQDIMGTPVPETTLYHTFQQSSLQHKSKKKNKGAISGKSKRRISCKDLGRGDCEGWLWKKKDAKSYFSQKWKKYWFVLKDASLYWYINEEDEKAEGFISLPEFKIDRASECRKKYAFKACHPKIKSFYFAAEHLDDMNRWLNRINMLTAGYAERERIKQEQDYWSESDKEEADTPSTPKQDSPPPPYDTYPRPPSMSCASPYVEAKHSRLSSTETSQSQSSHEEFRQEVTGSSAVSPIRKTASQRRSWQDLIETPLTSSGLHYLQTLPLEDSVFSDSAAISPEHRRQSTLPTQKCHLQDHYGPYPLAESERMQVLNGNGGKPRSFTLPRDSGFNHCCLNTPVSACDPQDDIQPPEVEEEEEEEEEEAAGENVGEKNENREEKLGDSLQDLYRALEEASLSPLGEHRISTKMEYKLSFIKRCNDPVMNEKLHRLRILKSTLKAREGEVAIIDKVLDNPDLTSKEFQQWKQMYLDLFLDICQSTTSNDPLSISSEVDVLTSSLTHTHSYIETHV
UniProt Q62167: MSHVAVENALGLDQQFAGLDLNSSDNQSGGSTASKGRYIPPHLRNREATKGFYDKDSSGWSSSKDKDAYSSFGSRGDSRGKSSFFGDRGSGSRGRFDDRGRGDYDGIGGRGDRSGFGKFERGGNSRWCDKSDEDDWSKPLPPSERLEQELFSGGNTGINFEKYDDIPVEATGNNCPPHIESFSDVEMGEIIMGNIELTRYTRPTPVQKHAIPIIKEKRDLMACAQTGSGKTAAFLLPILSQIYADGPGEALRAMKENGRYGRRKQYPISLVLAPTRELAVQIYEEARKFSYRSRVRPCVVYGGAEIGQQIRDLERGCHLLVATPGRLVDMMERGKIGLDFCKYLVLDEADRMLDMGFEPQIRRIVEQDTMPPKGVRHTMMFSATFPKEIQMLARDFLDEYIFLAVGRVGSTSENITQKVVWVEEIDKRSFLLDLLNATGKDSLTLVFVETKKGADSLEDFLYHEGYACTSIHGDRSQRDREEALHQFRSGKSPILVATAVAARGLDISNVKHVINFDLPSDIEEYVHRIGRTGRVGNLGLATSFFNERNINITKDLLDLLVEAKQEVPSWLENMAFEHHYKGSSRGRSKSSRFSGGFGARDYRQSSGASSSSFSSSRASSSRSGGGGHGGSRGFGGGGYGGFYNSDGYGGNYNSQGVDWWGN
UniProt P63085: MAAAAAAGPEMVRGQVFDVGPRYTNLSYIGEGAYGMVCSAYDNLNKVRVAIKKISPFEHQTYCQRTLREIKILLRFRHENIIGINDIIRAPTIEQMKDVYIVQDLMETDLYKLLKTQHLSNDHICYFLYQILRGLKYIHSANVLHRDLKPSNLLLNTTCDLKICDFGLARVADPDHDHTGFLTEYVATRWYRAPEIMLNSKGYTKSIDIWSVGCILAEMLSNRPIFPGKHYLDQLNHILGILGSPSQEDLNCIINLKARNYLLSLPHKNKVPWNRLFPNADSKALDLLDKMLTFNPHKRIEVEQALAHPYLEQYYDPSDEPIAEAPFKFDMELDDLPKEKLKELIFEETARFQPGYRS
UniProt P29341: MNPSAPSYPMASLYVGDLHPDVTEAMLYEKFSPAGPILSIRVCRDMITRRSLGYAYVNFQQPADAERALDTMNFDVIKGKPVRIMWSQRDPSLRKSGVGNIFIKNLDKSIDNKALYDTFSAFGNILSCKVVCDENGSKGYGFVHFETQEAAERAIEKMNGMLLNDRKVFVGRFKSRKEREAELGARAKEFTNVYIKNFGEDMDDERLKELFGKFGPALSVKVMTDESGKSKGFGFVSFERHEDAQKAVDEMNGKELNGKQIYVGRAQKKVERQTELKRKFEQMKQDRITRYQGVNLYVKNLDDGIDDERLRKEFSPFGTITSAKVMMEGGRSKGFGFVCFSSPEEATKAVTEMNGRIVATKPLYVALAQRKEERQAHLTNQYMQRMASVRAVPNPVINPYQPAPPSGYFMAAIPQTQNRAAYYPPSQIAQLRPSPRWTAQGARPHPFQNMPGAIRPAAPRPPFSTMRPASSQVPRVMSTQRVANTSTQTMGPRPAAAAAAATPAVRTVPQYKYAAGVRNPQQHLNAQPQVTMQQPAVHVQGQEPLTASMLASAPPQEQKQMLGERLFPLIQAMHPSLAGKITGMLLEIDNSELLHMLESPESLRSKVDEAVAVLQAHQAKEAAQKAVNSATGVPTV
UniProt D3YXK2: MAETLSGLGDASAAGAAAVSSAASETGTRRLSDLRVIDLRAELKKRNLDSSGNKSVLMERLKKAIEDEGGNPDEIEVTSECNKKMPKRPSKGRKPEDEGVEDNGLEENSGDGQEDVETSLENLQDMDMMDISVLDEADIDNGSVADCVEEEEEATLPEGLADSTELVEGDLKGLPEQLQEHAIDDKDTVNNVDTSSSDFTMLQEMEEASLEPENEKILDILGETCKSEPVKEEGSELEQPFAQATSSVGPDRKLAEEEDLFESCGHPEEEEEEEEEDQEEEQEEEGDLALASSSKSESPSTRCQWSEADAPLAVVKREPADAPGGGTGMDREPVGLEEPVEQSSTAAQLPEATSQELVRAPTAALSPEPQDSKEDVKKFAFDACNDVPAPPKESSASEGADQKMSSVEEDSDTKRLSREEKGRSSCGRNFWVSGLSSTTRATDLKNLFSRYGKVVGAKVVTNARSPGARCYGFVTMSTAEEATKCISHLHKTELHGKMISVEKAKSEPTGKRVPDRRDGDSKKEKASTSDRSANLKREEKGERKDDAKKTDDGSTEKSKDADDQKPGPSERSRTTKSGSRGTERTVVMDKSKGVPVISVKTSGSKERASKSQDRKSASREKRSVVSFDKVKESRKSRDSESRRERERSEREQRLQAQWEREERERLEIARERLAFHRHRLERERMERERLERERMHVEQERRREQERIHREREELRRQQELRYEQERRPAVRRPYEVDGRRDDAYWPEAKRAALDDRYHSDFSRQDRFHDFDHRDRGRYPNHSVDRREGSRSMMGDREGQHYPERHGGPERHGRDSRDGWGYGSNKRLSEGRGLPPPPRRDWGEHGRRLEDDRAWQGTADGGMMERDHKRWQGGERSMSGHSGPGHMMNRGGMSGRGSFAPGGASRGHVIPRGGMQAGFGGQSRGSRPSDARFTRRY

According to article PMC9674349:

Biological target: T1, gephyrin, native, in mouse brain (mouse (endogenous in brain)) (UniProt Q8BUV3)
T1 sequence: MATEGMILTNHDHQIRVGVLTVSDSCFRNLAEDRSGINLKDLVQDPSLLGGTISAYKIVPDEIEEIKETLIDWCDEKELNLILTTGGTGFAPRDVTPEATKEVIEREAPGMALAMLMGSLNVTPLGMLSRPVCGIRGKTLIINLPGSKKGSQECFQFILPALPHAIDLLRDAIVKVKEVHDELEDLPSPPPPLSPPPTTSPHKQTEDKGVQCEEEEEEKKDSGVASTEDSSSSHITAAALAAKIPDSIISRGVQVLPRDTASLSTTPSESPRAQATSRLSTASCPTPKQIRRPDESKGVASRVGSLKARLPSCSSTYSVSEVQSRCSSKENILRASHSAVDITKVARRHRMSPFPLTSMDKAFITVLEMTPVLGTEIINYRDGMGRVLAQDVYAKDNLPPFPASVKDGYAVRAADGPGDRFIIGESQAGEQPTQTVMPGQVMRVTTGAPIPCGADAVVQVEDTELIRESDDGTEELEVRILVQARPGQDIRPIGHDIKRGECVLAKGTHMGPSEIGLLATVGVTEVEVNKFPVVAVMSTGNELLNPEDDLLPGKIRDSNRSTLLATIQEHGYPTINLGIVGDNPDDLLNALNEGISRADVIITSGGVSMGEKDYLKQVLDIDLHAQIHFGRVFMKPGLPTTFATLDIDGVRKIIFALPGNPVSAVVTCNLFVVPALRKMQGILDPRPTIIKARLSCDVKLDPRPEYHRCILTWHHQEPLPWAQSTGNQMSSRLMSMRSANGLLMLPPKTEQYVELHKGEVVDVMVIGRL
Test: affinity purification with mass spectrometry; native gephyrin complexes precipitated from mouse cortex and hippocampus lysate with DARPin-hFc 27B3, 27F3, 27G2 or antibody 3B11 on Protein G magnetic beads; LC-MS/MS; against control DARPin-hFc E3_5 or control IgG

binding, binds:
CAMKIIα (from UniProt P11798 1-478) (enzyme), CENPV (from UniProt Q9CXS4 1-252), CNKR2 (from UniProt Q80YA9 1-1032), DDX3X (from UniProt Q62167 1-662), MK01 (ERK2) (from UniProt P63085 1-358) (enzyme), PABP1 (from UniProt P29341 1-636), SAFB1 (from UniProt D3YXK2 1-937)

These are yes or no findings as the source states them, for the method shown. Binding seen in cells or lysates may run through a third protein. These calls come from enrichment with a bait or labelling near it, and not all partners need be listed.
